# No constants are given. Whether binding was seen depends on the method and setting. In cells and extracts the contact can be indirect. Some entries that bind do so weakly or less than the wild type.
# Sequences of proteins named here, by UniProt entry; tags and fusion partners are left off.
# UniProt Q15672: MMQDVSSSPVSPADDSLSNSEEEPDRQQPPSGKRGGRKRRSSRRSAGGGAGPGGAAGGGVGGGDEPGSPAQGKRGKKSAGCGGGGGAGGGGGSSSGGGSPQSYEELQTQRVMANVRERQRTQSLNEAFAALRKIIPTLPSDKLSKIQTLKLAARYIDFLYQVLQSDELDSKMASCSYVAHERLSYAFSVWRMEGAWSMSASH
# UniProt Q09472: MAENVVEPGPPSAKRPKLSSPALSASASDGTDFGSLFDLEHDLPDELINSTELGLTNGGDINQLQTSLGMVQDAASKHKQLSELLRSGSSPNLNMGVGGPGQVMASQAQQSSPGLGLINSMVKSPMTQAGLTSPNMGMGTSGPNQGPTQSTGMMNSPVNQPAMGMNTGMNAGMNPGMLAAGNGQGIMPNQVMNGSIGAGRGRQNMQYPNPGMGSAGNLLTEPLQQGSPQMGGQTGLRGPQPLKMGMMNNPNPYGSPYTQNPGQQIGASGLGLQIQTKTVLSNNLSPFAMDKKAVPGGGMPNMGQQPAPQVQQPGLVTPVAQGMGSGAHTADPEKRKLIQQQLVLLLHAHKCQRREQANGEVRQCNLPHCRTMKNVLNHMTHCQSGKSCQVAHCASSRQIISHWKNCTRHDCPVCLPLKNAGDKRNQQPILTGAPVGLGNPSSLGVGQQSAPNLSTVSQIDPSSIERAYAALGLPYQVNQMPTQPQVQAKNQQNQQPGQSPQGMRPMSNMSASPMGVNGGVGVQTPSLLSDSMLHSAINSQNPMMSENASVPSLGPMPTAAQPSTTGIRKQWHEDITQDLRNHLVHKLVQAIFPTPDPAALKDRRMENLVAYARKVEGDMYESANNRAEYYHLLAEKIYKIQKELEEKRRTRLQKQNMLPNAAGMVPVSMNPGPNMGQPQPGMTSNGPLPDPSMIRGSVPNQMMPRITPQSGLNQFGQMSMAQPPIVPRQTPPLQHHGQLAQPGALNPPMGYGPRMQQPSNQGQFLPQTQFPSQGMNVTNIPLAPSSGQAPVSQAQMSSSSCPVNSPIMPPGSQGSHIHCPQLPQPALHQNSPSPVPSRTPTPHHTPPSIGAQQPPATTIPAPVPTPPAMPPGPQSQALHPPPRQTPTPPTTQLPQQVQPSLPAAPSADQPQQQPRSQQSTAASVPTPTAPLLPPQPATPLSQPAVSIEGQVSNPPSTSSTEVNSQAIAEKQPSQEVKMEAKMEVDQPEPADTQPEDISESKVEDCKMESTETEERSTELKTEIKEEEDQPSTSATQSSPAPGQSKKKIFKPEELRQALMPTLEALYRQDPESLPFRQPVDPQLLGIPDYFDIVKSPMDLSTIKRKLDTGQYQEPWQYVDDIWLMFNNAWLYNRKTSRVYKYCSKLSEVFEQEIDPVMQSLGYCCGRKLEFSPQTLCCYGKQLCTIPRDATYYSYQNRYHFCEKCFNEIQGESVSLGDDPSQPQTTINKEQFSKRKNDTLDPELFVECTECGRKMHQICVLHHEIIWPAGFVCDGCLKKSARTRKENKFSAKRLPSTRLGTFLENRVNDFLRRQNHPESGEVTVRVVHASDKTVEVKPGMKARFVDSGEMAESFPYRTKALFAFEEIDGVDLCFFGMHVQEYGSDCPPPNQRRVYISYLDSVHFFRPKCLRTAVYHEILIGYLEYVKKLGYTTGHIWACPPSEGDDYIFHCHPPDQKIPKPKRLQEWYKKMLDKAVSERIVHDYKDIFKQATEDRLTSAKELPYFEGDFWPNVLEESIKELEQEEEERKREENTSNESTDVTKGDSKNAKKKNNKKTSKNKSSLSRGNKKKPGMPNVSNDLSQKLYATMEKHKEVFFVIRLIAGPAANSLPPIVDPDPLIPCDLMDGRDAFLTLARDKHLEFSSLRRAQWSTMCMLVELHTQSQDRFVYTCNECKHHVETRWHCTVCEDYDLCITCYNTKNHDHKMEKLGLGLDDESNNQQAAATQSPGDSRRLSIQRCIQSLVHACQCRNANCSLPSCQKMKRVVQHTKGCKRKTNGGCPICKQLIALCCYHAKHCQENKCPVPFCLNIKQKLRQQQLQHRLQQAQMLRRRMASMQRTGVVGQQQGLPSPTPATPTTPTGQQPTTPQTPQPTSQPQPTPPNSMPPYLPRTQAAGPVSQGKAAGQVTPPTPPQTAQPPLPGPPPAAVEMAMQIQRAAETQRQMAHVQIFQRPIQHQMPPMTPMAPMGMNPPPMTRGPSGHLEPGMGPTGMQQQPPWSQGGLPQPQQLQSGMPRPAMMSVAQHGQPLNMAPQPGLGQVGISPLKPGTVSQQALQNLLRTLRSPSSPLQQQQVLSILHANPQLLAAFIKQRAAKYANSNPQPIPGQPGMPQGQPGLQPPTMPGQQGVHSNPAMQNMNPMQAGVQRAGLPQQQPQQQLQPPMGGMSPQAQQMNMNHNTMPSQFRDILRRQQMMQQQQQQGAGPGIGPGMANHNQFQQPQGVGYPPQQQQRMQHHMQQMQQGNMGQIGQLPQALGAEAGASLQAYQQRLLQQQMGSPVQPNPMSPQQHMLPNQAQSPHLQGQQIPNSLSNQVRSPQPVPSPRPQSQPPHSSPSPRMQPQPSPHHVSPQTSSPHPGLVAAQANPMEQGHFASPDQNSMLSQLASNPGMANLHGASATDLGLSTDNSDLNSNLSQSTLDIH
# UniProt Q92793: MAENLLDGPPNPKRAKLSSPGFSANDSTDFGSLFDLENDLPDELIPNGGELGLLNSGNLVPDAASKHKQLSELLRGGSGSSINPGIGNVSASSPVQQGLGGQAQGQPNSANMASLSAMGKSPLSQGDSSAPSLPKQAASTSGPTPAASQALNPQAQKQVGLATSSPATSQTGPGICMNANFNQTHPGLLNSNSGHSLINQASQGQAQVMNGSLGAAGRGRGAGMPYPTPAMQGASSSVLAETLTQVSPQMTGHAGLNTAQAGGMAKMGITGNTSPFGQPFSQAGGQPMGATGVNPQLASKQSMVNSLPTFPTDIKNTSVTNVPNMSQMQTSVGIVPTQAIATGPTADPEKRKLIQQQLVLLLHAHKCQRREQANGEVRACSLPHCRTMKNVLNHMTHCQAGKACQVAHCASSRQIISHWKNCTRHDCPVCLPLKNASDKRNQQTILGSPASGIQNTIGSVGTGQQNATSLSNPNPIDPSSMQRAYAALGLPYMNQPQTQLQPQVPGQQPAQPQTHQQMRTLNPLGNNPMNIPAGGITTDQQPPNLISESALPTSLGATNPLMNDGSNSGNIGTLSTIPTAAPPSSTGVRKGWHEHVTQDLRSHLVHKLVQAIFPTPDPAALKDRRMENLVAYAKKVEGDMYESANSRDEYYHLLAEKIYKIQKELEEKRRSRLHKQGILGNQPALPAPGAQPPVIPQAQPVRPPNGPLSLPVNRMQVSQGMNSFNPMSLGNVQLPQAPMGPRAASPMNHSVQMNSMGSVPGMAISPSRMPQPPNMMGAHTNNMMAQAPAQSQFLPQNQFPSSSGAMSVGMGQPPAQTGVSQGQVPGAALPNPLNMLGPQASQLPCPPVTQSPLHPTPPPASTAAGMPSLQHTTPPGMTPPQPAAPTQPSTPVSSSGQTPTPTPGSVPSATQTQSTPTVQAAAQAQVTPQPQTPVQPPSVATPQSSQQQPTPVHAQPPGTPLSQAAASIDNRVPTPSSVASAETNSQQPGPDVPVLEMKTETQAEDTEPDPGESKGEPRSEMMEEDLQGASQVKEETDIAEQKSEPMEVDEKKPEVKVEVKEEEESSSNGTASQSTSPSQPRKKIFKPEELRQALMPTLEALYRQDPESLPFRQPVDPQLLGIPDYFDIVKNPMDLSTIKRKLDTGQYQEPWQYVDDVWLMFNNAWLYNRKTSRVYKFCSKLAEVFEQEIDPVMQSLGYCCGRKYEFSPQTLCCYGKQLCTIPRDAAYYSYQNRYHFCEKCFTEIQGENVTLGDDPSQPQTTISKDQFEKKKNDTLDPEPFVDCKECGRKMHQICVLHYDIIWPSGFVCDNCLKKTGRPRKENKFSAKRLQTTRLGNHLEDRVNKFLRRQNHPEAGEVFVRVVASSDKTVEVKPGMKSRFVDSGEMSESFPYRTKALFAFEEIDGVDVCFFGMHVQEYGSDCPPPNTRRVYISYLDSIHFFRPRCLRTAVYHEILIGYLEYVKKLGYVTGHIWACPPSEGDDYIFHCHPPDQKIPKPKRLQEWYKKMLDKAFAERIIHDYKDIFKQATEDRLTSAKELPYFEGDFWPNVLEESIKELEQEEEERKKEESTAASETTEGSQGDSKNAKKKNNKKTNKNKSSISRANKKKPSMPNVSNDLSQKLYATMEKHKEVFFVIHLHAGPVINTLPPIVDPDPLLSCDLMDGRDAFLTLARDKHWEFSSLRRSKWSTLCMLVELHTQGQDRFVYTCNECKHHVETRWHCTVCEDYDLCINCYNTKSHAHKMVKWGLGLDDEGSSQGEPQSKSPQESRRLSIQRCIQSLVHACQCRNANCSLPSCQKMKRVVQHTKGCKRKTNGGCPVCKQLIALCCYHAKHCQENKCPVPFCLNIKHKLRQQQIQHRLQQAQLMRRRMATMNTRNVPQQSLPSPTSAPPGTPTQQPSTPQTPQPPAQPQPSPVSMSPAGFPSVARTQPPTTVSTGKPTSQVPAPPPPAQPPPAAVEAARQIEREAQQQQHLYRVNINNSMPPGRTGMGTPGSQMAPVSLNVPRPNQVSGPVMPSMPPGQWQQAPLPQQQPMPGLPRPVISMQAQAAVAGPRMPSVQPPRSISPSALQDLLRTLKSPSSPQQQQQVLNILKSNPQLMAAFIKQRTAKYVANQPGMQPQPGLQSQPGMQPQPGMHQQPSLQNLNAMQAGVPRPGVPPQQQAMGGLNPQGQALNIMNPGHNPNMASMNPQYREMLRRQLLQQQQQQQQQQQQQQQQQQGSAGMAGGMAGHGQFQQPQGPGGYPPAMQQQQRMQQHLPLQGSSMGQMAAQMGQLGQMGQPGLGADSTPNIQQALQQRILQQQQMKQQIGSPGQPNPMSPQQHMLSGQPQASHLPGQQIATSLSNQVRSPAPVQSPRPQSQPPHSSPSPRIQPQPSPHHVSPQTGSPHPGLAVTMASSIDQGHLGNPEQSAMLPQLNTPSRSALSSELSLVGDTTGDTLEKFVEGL
# What was measured:
# [1] = molecular target: Twist1 (human (endogenous in HUVEC)) (UniProt Q15672); experiment: co-IP; 200 ug protein of HUVEC lysate incubated with 5 ug anti-Twist1 antibody at 4 °C overnight, protein A/G agarose beads 4 h, washed with PBS; blot for p300/CBP; cells under normoxia or hypoxia (1% O2, 48 h), with or without 10 mM lactate, with or without the MCT inhibitor CHC
# [2] = molecular target: p300 (human (endogenous in HUVEC)) (UniProt Q09472); experiment: co-IP; HUVEC lysate precipitated with anti-p300 or anti-CBP antibody, protein A/G agarose beads; blot for Twist1; cells under hypoxia, with or without 10 mM lactate, with or without the MCT inhibitor CHC
# [3] = molecular target: CBP (human (endogenous in HUVEC)) (UniProt Q92793); experiment: as above
Substance,binding [1],binding [2],binding [3]
CBP (from UniProt Q92793 1-2442),binds,,
p300 (from UniProt Q09472 1-2414),binds,,
Twist1 (from UniProt Q15672 1-202),,binds,binds

# From publication PMC11653614
